Results from paper PMC6539346, “Molecular and Structural Basis of the Proteasome α Subunit Assembly Mechanism Mediated by the Proteasome-Assembling Chaperone PAC3-PAC4 Heterodimer” (International Journal of Molecular Sciences, 2019).
Results are given in words; binding and its absence hold for the method and conditions named. For part of these data: Sequences can lack the tags named with a protein.

Amino acid sequences for entries named in this document (tags omitted).
UniProt P60900: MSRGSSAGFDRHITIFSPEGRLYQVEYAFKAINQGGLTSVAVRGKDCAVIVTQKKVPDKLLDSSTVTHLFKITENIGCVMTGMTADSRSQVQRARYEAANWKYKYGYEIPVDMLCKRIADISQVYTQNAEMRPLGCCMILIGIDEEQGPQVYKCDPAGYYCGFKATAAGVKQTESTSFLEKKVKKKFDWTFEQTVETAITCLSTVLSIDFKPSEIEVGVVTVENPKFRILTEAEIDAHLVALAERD
UniProt P25787: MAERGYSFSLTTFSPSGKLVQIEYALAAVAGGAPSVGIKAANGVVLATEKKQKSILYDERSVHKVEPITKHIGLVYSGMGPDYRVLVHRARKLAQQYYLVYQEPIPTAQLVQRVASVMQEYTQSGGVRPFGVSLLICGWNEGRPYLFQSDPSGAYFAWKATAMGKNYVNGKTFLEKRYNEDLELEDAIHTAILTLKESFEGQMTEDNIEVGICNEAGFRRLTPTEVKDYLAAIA

Legend:
[1] = target: GST-fused human proteasome α5 subunit (human) (UniProt P28066); experiment: condition: 50 μg of α subunits on 20 μg of immobilised GST-α5; pull-down; GST-α5 (20 μg) on Glutathione Sepharose 4B, incubated with the other α subunits (50 μg) in the presence of 50 μg of scPAC3/4 (wild type or V77S/K80A mutant), with or without α7; 2 h, 4 °C, 20 mM Tris-HCl pH 8.0, 150 mM NaCl; SDS-PAGE, CBB staining; both purified
[2] = target: GST-fused human proteasome α5 subunit (human) (UniProt P28066); experiment: condition: 50 μg of α subunits on 20 μg of immobilised GST-α5; pull-down; GST-α5 (20 μg) on Glutathione Sepharose 4B, incubated with the other α subunits (50 μg) in the absence of scPAC3/4, with or without α7; 2 h, 4 °C, 20 mM Tris-HCl pH 8.0, 150 mM NaCl; SDS-PAGE, CBB staining; both purified
[3] = target: T1, GST-fused human proteasome α5 subunit (human), P28066; experiment: as above; conditions: remark: other sources report otherwise
T1 chain: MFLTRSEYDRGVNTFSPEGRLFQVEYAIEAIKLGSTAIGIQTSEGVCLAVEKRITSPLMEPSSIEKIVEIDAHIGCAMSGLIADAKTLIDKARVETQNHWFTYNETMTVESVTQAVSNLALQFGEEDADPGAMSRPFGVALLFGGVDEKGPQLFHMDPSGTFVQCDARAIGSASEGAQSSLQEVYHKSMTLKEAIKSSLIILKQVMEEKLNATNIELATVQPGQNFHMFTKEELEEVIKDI

[4] = target: T1, GST-fused human proteasome α5 subunit …; experiment: condition: 50 μg of α subunits on 20 μg of immobilised GST-α5; pull-down; GST-α5 (20 μg) on Glutathione Sepharose 4B, incubated with the other α subunits (50 μg) in the presence of 50 μg of scPAC3/4 (wild type or V77S/K80A mutant), with or without α7; 2 h, 4 °C, 20 mM Tris-HCl pH 8.0, 150 mM NaCl; SDS-PAGE, CBB staining; both purified; conditions: remark: other sources report otherwise

“human proteasome α1 subunit, non-tagged (from UniProt P60900 1-246)” was tested, and the binding [1] was “no binding” and the binding [2] was “no binding”.

In the case of “human proteasome α2 subunit (from UniProt P25787 1-234)”, the binding [1] is reported as “no binding” and the binding [2] is reported as “no binding”.

B1: human proteasome α7 subunit, P25788 1-255 (protein)
chain: MSSIGTGYDLSASTFSPDGRVFQVEYAMKAVENSSTAIGIRCKDGVVFGVEKLVLSKLYEEGSNKRLFNVDRHVGMAVAGLLADARSLADIAREEASNFRSNFGYNIPLKHLADRVAMYVHAYTLYSAVRPFGCSFMLGSYSVNDGAQLYMIDPSGVSYGYWGCAIGKARQAAKTEIEKLQMKEMTCRDIVKEVAKIIYIVHDEVKDKAFELELSWVGELTNGRHEIVPKDIREEAEKYAKESLKEEDESDDDNM
B1 was tested, and the binding [3] was “no binding” and the binding [4] was “no binding”.
